Source: PubChem BioAssay AID504444 (National Center for Advancing Translational Sciences (NCATS), 2011)
In all, about 360,000 compounds went through this assay and about 7,500 (2.1%) were called active. The inconclusive results got no clear call from the source; some entries with a clear call stand among them for comparison. Calls come from the whole dose curve; as a rule, active = well fitted inhibition curve with a large enough effect; inconclusive = small, poorly fitted or top-dose-only effect, or effect the other way; inactive = flat fitted curve, though single readings scatter. Potencies beside an inconclusive call are fits to weak or partial responses and may not hold up.
% is set by controls: 0 for no effect and ±100 for the full control effect; potency is the fitted concentration of half-maximal effect.

Assay: Nrf2 qHTS screen for inhibitors; note: nearly all actives have a fitted effect of over 60% in size
Settings: A549 ARE-Fluc reporter, luciferase luminescence, 18-24 h; activity change, negative = inhibition: at 46 µM (top of the series)
Outline: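 Nrf2 function is reported as luminescence of an ARE-controlled luciferase in A549 cells. Compounds were tested at several concentrations, and a CellTiter-Fluor read on the same wells flagged cytotoxicity.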
With `O=C(NCCc1ccccc1Cl)c1ccc(Cn2c(=O)c3cccn3c3cccnc32)cc1` the Potency was inconclusive: 29.1 µM [falling, single point].
For `Cc1ccc(-c2nnc(SCc3ccccc3C)o2)cc1`, the Potency was inconclusive: 10.3 µM [activator, partial curve].
For `Cc1c(C(=O)NC(=S)NCc2cccnc2)cccc1[N+](=O)[O-]`, the Potency was inconclusive: 3.26 µM [falling, full curve, poor fit].
With `CCc1nc(SCc2cc(Cl)ccc2OC)n[nH]1` the Potency was inconclusive: 2.06 µM [falling, full curve, poor fit].
For `COc1ccc(C(=O)C/C(=C\C(=O)c2ccc(C)cc2)c2ccccc2)cc1`, the Potency was active: 2.59 µM.
For `CCOCCSc1nc2c(c(-c3cccs3)c1C#N)CC/C2=C/c1cccs1`, the “activity change, negative = inhibition” value was inactive: 3.51%.
With `O=C(Nc1ccccc1Cc1ccccc1)c1oc2ccccc2c1COc1ccccc1` the “activity change, negative = inhibition” value was inactive: 9.44%.
For `Cn1c(=O)[nH]c(=O)c2c1nc(N1CCCCC1)n2C/C=N/Nc1ccc(C(=O)O)cc1`, the Potency was inconclusive: 14.6 µM [activator, single point].
With `Cc1cccc(NC(=O)CN(CC2CCCO2)C(=O)c2ccc(S(C)(=O)=O)cc2)c1C` (configuration not stated) the “activity change, negative = inhibition” value was inactive: -19.3%.
For `Cc1ccc(C)c(N2CCN(C(=O)C3CCCN(S(=O)(=O)c4ccc5c(c4)oc(=O)n5C)C3)CC2)c1` (configuration not stated), the Potency was inconclusive: 4.11 µM [falling, partial curve, poor fit].
In the case of `COc1ccc(OCc2cc(=O)c3ccc4c(c3o2)C=CC(C)(C)O4)cc1OC`, the Potency is reported as inconclusive: 29.1 µM [falling, single point].
In the case of `CCOc1ccc(OCCC(=O)OCC(=O)Nc2cccc(S(=O)(=O)N3CCCCC3)c2)cc1`, the Potency is reported as inconclusive: 25.9 µM [falling, partial curve, poor fit].
For `c1ccc(CNc2ncnc3c2oc2ccccc23)nc1`, the Potency was inconclusive: 5.17 µM [activator, full curve].
For `CN(C)c1ccc(C=C2SC(=S)NC2=O)cc1`, the Potency was inconclusive: 16.4 µM [activator, partial curve, poor fit].
With `Cc1cccc(CCNc2nc3ccc(C)cc3n3cnnc23)c1` the Potency was inconclusive: 16.4 µM [falling, partial curve, poor fit].
For `O=S(=O)(c1ccccc1Br)N1CCN(c2nc(-c3cccs3)nc3ccccc23)CC1`, the Potency was inconclusive: 6.51 µM [falling, full curve].
In the case of `CC(=O)c1ccc(NC(=O)Cn2cc(S(=O)(=O)Cc3cccc(Cl)c3)c3ccccc32)cc1`, the Potency is reported as inconclusive: 16.4 µM [activator, single point].
For `O=C(Nc1cc2ccccc2oc1=O)c1ccccc1`, the Potency was inconclusive: 1.84 µM [activator, partial curve].
For `CCN(CCn1cccn1)C(=O)c1cc(COc2ccc(F)c(F)c2)on1`, the Potency was inconclusive: 4.11 µM [activator, partial curve, poor fit].
In the case of `CC1CCCCN1C(=O)COC(=O)C1CCN(S(=O)(=O)c2c(Cl)cccc2Cl)CC1` (configuration not stated), the “activity change, negative = inhibition” value is reported as inactive: 3.69%.
With `CC1CCN(C(=S)c2ccc(-c3ccc(Cl)cc3Cl)o2)CC1` the Potency was inconclusive: 20.6 µM [activator, partial curve].
With `Cc1ccc2cc(NC(=O)c3ccc(C(C)(C)C)cc3)ccc2n1` the Potency was inconclusive: 7.31 µM [falling, partial curve, poor fit].
In the case of `Cc1cccc(NC(=O)CCS(=O)(=O)c2ccccc2)n1`, the Potency is reported as inconclusive: 1.84 µM [activator, full curve].
In the case of `CCc1nc(N)c(C#N)c(-c2cccnc2)c1C`, the “activity change, negative = inhibition” value is reported as inactive: -2.81%.
In the case of `O=c1cnnc(N/N=C/c2ccccn2)[nH]1`, the Potency is reported as inconclusive: 2.91 µM [falling, full curve].
With `COC(=O)c1cc2sc(Cl)cc2n1CC(=O)Nc1ccc(OC)c(OC)c1OC` the Potency was inconclusive: 20.6 µM [falling, single point].
For `CCN(CC)CCNC(=O)c1ccc(Cn2c(SCc3ccccc3)nc3cccnc32)cc1`, the Potency was inconclusive: 16.4 µM [activator, single point].
With `Cc1ccc2c(Sc3ccc(Cl)cc3)c(C(=O)N3CCC(C)CC3)[nH]c2c1` the “activity change, negative = inhibition” value was inactive: -19.6%.
With `Cc1csc(SCC(=O)NCc2ccccc2)n1` the “activity change, negative = inhibition” value was inactive: 18%.
For `C=CCc1cccc(/C=N/NC(=O)C[n+]2ccccc2)c1O`, the Potency was inconclusive: 32.6 µM [falling, single point].
In the case of `O=S(=O)(Nc1c(S(=O)(=O)c2ccccc2)c2nc3ccccc3nc2n1C1CCCCC1)c1ccccc1`, the Potency is reported as inconclusive: 16.4 µM [falling, single point].
With `O=C1C=C(c2cc3ccccc3s2)CCC1` the Potency was inconclusive: 20.6 µM [activator, partial curve].
With `O=C(Cn1cc(SCc2c(F)cccc2Cl)c2ccccc21)N1CCCCCC1` the Potency was inconclusive: 4.11 µM [falling, single point].
For `CN(C)CCOC1c2ccccc2CCc2ccc3ccccc3c21` (configuration not stated), the “activity change, negative = inhibition” value was inactive: -21.1%.
With `O=C(CCCC(=O)c1ccc(O)cc1)c1ccc(O)cc1` the Potency was inconclusive: 29.1 µM [activator, single point].
With `CN1C=C/C(=C\c2cc[n+](C)c3ccccc23)c2ccccc21` the Potency was active: 5.8 µM.
With `CC1(C)CC(NS(=O)(=O)OCC(Cl)(Cl)Cl)c2cc(C#N)ccc2O1` (configuration not stated) the Potency was inconclusive: 29.1 µM [falling, single point].
In the case of `COc1ccc(CNC(=O)COC(=O)c2c(C)nn(-c3ccccc3)c2C)cc1OC`, the Potency is reported as inconclusive: 29.1 µM [falling, single point].
In the case of `Cc1ccc(C)c(NC(=O)c2cnn(-c3cccc(F)c3)c2C2CCN(C(=O)OC(C)(C)C)CC2)c1`, the Potency is reported as inconclusive: 18.4 µM [falling, single point].
With `COc1ccc(NC(=O)COc2ccc(/C=N/O)cc2OC)cc1` the Potency was inconclusive: 2.59 µM [activator, full curve].
In the case of `CCOC(=O)/C(=C/c1ccc(N2CCC(c3ccccc3)=N2)cc1)C(C)=O`, the Potency is reported as inconclusive: 1.64 µM [activator, full curve].
For `CN(C)C(=O)/C(=C/c1ccc(-c2cccc([N+](=O)[O-])c2)o1)NC(=O)c1ccccc1`, the “activity change, negative = inhibition” value was inactive: -14.9%.
